Reference: paper PMC12040169 (PLOS Biology, 2025)
The list shows a part of the results.

What follows are compounds tested on T1, CTL2-GFP (C. trachomatis L2/434/Bu, GFP-expressing). Settings: bulk GFP, single well; 28.5 h, 10 µM; inhibitor.
T1 construct: L2/434/Bu, GFP-expressing
Design: species or system HeLa; Intracellular C. trachomatis growth in HeLa cells, bulk GFP fluorescence relative to DMSO

| SMILES | % of control remaining [%] |
| --- | --- |
| O=C1N[C@@H](CC2CCCCC2)C(=O)N2CCN(C(=O)c3cccc(F)c3)C[C@H]12 [CBK289599] | 174.522 |
| O=C(O)c1ccc(-c2ccc(OC(F)(F)F)cc2)nc1 [CBK160173T] | 108.136 |
| COC(=O)CSc1nnc(CSc2cc(C)nc(N3CCOCC3)n2)o1 [CBK007059] | 124.771 |
| O=C(CSc1nnc(-c2ccncc2)n1Cc1ccccc1)Nc1ccc(Cl)cc1 [CBK269346] | 133.259 |
| c1ccc2c(CCNc3nccnc3-c3ccoc3)c[nH]c2c1 [CBK036743] | 87.9158 |
| O=C(c1cncs1)N1CCn2nc(C(O)Cc3ccccc3)cc2C1 (centres unmarked) [CBK306754] | 113.373 |
| C=Cn1ncc(CN2C3CCC2CC(O)(c2ccc(F)cc2)C3)c1C (centres unmarked) [CBK282738] | 139.938 |
| Cc1ccc(NC(=O)OCCN2CCN(C)CC2)c(C)n1 [CBK200135] | 97.8009 |
| COc1ccc([C@@]23CCC(NC(=O)CCc4cccnc4)C[C@@H]2N(C)CC3)cc1OC (some centres unmarked) [CBK003770] | 91.7319 |
| O=C(c1ccc(OC(F)(F)F)cc1)N1CCC2(CCN(C(=O)c3ccoc3)C2)C1 (centres unmarked) [CBK131735] | 132.699 |
| COc1ccc(-c2ccc(=O)n(CC(=O)NC(C(=O)O)c3ccccc3)n2)c(F)c1 (centres unmarked) [CBK286769] | 149.501 |
| O=C(NCc1ccc(Cl)cc1)N1CCN(CCc2ccccc2)CC1 [CBK158922] | 91.0705 |
| CC(C)c1ccc(S(=O)(=O)Nc2ccc(C(=O)O)c(O)c2)cc1 [CBK299819] | 108.544 |
| FC(F)(F)c1ccnc(OCc2ccc(Cl)c(Cl)c2)c1 [CBK116623] | 120.621 |
| CN1CCN(S(=O)(=O)c2ccc(Oc3ccc([N+](=O)[O-])cc3)cc2)CC1 [CBK262248] | 88.0829 |
| O=C1NCCc2c1[nH]c1ccccc21 [CBK101624] | 88.4174 |
| N/C(=N/OC(=O)c1ccc2nsnc2c1)c1ncon1 [CBK263847] | 103.088 |
| Cc1ccc2nsnc2c1NC(=O)Cc1cccc2ccccc12 [CBK266279] | 188.878 |
| C=CCNC(=O)C1CCCN(c2nc3ccccc3n2C)C1 (centres unmarked) [CBK282872] | 107.481 |
| Cc1ccc(S(=O)(=O)NC(=O)Nc2cccc(NC(=O)NS(=O)(=O)c3ccc(C)cc3)n2)cc1 [CBK296102] | 123.764 |
| Cn1cc(CCN2CCC(C(=O)NC(=O)Nc3ccccc3)CC2)c2ccccc21 [CBK034867] | 126.711 |
| O=C1NCC2(CCN(C(=O)c3ccco3)CC2)Oc2ccccc21 [CBK282919] | 73.3207 |
| O=c1c(Cl)c(O)c2ccccc2n1Cc1ccccc1 [CBK291164] | 120.512 |
| C[C@@H]1CN(Cc2ccco2)CCN1C(=O)c1nccc2ccccc12 [CBK285489] | 91.3132 |
| COc1ccc(CC(=O)NC2CC(C)(C)Cc3c2cnn3C)cc1 (centres unmarked) [CBK282886] | 123.57 |
| O=C1NC/C=C/CC2(CCN(Cc3c[nH]c4ccccc34)CC2)C(=O)NCCOc2ccccc21 [CBK292085] | 155.787 |

| SMILES | % of control remaining [%] |
| --- | --- |
| CCc1nc2ccc(C(=O)Nc3cccc(OC)c3)cn2c1N(C)Cc1cccs1 [CBK145522] | 108.579 |
| CC(C)OC(=O)N1CCC(N(C)Cc2ccc(-c3ccc(S(C)(=O)=O)cc3)nc2)CC1 [CBK165261T] | 128.241 |
| O=S(=O)(Nc1cccc(-c2nnn[nH]2)c1)c1cc(Br)c(Cl)s1 [CBK160374] | 131.877 |
| CCc1cc(S(=O)(=O)NC2CC(C)(C)NC(C)(C)C2)ccc1OC [CBK270097] | 107.562 |
| CCOC(=O)C1(C)C=C(Nc2cccc(C)c2)C(=O)N1c1ccccc1 (centres unmarked) [CBK263757] | 122.468 |
| CCOc1sc(=S)n(C)c1C(C)=O [CBK019515] | 108.254 |
| O=C(COc1ccccc1)Nc1ccccc1Sc1ncnc2sc3c(c12)CCCC3 [CBK266171] | 178.304 |
| CN(c1ccccc1)C1CCN(c2nc3c(cnn3C)c(=O)[nH]2)CC1 [CBK305215] | 133.88 |
| COC(=O)c1c(NC(=O)C(=O)NCc2ccccn2)sc2c1CCCC2 [CBK269505] | 110.078 |
| CC(=O)Nc1cc(C(=O)NCCc2ccccc2)ccc1S(=O)(=O)c1ccc(C)cc1 [CBK071771] | 120.536 |
| CC(C)c1cc(C(=O)N[C@@H]2CCOC[C@H]2Oc2ccc(CO)cc2)on1 [CBK306554] | 90.6725 |
| COc1cc(C(C)NC2CCN(c3nc(C)cs3)CC2)ccn1 (centres unmarked) [CBK304247] | 116.729 |
| NNC(=O)c1ccc(Oc2ccc(C(=O)NN)cc2)cc1 [CBK260995] | 112.841 |
| COc1ccccc1N1C(=O)CC(N2CCC(C(N)=O)(N3CCCCC3)CC2)C1=O (centres unmarked) [CBK265533] | 100 |
| CC(=O)N[C@@H](Cc1ccccc1)C(=O)N1CC[C@H]2NC(=O)[C@H](Cc3ccccc3)NC(=O)C3(C/C=C/C[C@@H]2C1)CCOCC3 [CBK292190] | 120.444 |
| COCCCNc1nc2c(-c3ccc(Cl)cc3)nnn2c2ccccc12 [CBK287770] | 122.397 |
| CS(=O)(=O)N(Cc1ccccc1)c1ccc(C(=O)N/N=C/c2ccccc2C(F)(F)F)cc1 [CBK262711] | 101.328 |
| Cc1ccc(C2=CCN(CC(=O)Nc3nc(C)c(C)s3)CC2)o1 [CBK283607] | 102.838 |
| CN(C)S(=O)(=O)N(CC(=O)NCc1ccco1)c1ccccc1 [CBK267971] | 129.989 |
| NCCn1cc(C(=O)N2Cc3cnn(Cc4ccc(F)cc4)c3C2)nn1 [CBK307461] | 121.295 |
| COc1ccc(-c2[nH]c(=S)ncc2-c2ccccc2)c(O)c1 [CBK288447] | 112.059 |
| O=C(O)c1ccccc1N1C(=O)C2CC=C(Cl)CC2C1=O (centres unmarked) [CBK287007] | 135.273 |
| Clc1ccc(N2CCN(c3cnc4ccccc4n3)CC2)cc1Cl [CBK066903] | 103.211 |
| COc1ccc(-c2nc(C3CCN(C(=O)NC(C)(C)C)CC3)n3ccccc23)cc1 [CBK047080] | 112.35 |
| COc1ccc(C(C)NC(=O)c2cn[nH]c2-c2ccc(Cl)cc2)cc1 (centres unmarked) [CBK288065] | 124.799 |
| COc1ccc(-c2cc(C(=O)NCCS(C)(=O)=O)cnc2-c2ccc(Cl)cc2)cc1 [CBK037620] | 122 |

| SMILES | % of control remaining [%] |
| --- | --- |
| Cc1ccc(SCCCNCCN(C)C)cc1 [CBK267807C] | 151.809 |
| COc1cccc(C(=O)NCCC(=O)N2CCc3c(nc[nH]c3=O)C2)c1 [CBK307231] | 93.7111 |
| CN(C)CCN(C)c1ccc(/C=C/c2ccccc2)cn1 [CBK037026] | 125.195 |
| CCc1ccc(CN2CCC(Oc3ccccc3F)(C(=O)O)CC2)nc1 [CBK307528] | 127.569 |
| O=C(O)c1cc(-c2ccco2)nc2ccccc12 [CBK027882] | 112.796 |
| O=C(c1cccnc1)N1CCCC2(CCN(C(=O)c3ccoc3)C2)C1 (centres unmarked) [CBK131640] | 110.481 |
| Cc1noc(C)c1C(=O)N1CCN(Cc2ccccc2)CC1 [CBK200173] | 95.0879 |
| CC(C)Nc1ccc(S(=O)(=O)N(Cc2ccccc2)Cc2ccccc2)cn1 [CBK267307] | 105.139 |
| O=C(NCc1ccco1)[C@H]1CN2CCC1C[C@@H]2Cn1cc(CO)nn1 (some centres unmarked) [CBK289080] | 112.638 |
| CC(c1ccccc1)N1CCn2c(nc3cc(NC(=O)COc4ccccc4)ccc32)C1 (centres unmarked) [CBK268033] | 92.6051 |
| COc1cc(C(=O)N2CCC3(CC2)CC(=O)c2ccc(-c4ccc(NS(C)(=O)=O)cc4)cc2O3)cc(OC)c1C [CBK170163] | 130.338 |
| COc1ccc(C)cc1S(=O)(=O)N(CC(=O)O)c1ccc(C)c(Cl)c1 [CBK269655] | 119.818 |
| CC(C)n1cnc2ccc(-c3noc(-c4nccc5ccccc45)n3)cc21 [CBK288617] | 106.671 |
| CNS(=O)(=O)c1cccc(C(C)NC(=O)N2CCC(COC)CC2)c1 (centres unmarked) [CBK304087] | 112.804 |
| O=C(CCC1CCCC1)n1ccn(CCc2cccs2)c1=O [CBK106611] | 109.255 |
| COc1cc(C(C)=O)ccc1OCC(O)Cn1c(=O)n(-c2ccccc2)c(=O)c2ccccc21 (centres unmarked) [CBK296677] | 121.395 |
| C=CCn1c(Cc2csc(NC(=O)c3ccc(C)c(F)c3)n2)n[nH]c1=S [CBK295307] | 170.36 |
| S=c1[nH]nc(CSc2nc3ccccc3[nH]2)n1-c1ccccc1 [CBK267133] | 146.126 |
| CN(C)CCCNC(=O)CCc1ccccc1 [CBK263806] | 133.663 |
| CC(C)(Oc1cccc2ccccc12)C(=O)O [CBK012409] | 125.328 |
| O=C1NC2=NOCCC2=CN1[C@H]1C[C@@H](O)[C@@H](CO)O1 [CBK201192] | 148.218 |
| COc1ccc2c(c1)C(NC(=O)C1CCCN(C)C1)CC(C)(C)O2 (centres unmarked) [CBK307631] | 100.734 |
| CC(C)CNc1nc(-c2cc(C(F)(F)F)cc(C(F)(F)F)c2)cnc1N [CBK063708] | 128.114 |
| CC1CCCC(C)N1C(=O)C1CCCCC1C(=O)O (centres unmarked) [CBK026624] | 118.216 |
| COc1ccc(-c2cc(CC3(NC(C)=O)COC3)no2)cc1 [CBK289428] | 116.118 |

Looked up one by one from above (3):

| SMILES | % of control remaining [%] |
| --- | --- |
| COc1ccc2c(c1)C(NC(=O)C1CCCN(C)C1)CC(C)(C)O2 (centres unmarked) [CBK307631] | 100.734 |
| COc1cc(C(=O)N2CCC3(CC2)CC(=O)c2ccc(-c4ccc(NS(C)(=O)=O)cc4)cc2O3)cc(OC)c1C [CBK170163] | 130.338 |
| O=C(NCc1ccco1)[C@H]1CN2CCC1C[C@@H]2Cn1cc(CO)nn1 (some centres unmarked) [CBK289080] | 112.638 |
